# Laboratory results as given in the supplement of paper PMC3682954.
# Counter-ions that a name gives are not always drawn. ± gives the standard deviation of the averaged measurements. The list shows a part of the results. Most values come without repeats; read them as rough.
# Test system: RAW 264.7
# Experiment: HMGB1-induced TNF-alpha production relative to HMGB1-stimulated control; higher = more TNF-alpha secretion (less inhibition)
# Details: stimulus: HMGB1 5 ug/ml, 18 h
structure (smiles),measurement,setting,value
S=P(N1CC1)(N1CC1)N1CC1,HMGB1-induced TNF-alpha production,compound concentration: 3 uM,87.7 ± 1.5%
COc1cc(N)c(Cl)cc1C(=O)NC1CCN(Cc2ccccc2)CC1 [Clebopride maleate],HMGB1-induced TNF-alpha production,compound concentration: 3 uM,62.9%
COc1cc(N)c(Cl)cc1C(=O)NC1CCN(Cc2ccccc2)CC1,HMGB1-induced TNF-alpha production,compound concentration: 3 uM,82.2%
Nc1nc(N)nc(-c2cc(Cl)ccc2Cl)n1 [Irsogladine Maleate],HMGB1-induced TNF-alpha production,compound concentration: 3 uM,98.3%
Nc1nc(N)nc(-c2cc(Cl)ccc2Cl)n1,HMGB1-induced TNF-alpha production,compound concentration: 3 uM,90.6%
Nc1nc(N)nc(-c2cc(Cl)ccc2Cl)n1 [Irsogladine],HMGB1-induced TNF-alpha production,compound concentration: 3 uM,94.5%
CCN1CCCC1CNC(=O)c1cc(S(=O)(=O)CC)c(N)cc1OC (centres undefined) [Amisulpride],HMGB1-induced TNF-alpha production,compound concentration: 3 uM,107 ± 8%
"COc1cc2oc(=O)cc(C)c2cc1OC [6,7-Dimethoxy-4-methylcoumarin]",HMGB1-induced TNF-alpha production,compound concentration: 1 ug/ml,69.9%
CCc1c(C(=O)NCCc2ccc(N3CCCCC3)cc2)[nH]c2ccc(Cl)cc12,HMGB1-induced TNF-alpha production,compound concentration: 3 uM,108%
CC(C)[C@H]1CC[C@H](C(=O)N[C@H](Cc2ccccc2)C(=O)O)CC1,HMGB1-induced TNF-alpha production,compound concentration: 3 uM,91.9 ± 25%
CC(C)[C@H]1CC[C@H](C(=O)N[C@H](Cc2ccccc2)C(=O)O)CC1 [Nateglinide],HMGB1-induced TNF-alpha production,compound concentration: 3 uM,123%
COc1c(O)cc2c(c1O)[C@@H]1O[C@H](CO)[C@@H](O)[C@H](O)[C@H]1OC2=O,HMGB1-induced TNF-alpha production,compound concentration: 3 uM,77.3%
CC(=O)Oc1cccc(C(=O)O)c1OC(C)=O,HMGB1-induced TNF-alpha production,compound concentration: 3 uM,80.2%
COc1ccc(CCCOC(Cn2ccnc2)c2ccc(OC)cc2)cc1 (centres undefined),HMGB1-induced TNF-alpha production,compound concentration: 3 uM,90.7%
CC(C)c1nc(CN(C)C(=O)N[C@H](C(=O)N[C@@H](Cc2ccccc2)C[C@H](O)[C@H](Cc2ccccc2)NC(=O)OCc2cncs2)C(C)C)cs1,HMGB1-induced TNF-alpha production,compound concentration: 3 uM,112%
CCCOC(=O)c1c(-c2ccccc2)nc(CC)c(C(=O)SCC)c1CCC,HMGB1-induced TNF-alpha production,compound concentration: 3 uM,93.5%
COc1ccccc1OCCNCC(O)COc1cccc2[nH]c3ccccc3c12 (centres undefined) [Carvedilol],HMGB1-induced TNF-alpha production,compound concentration: 3 uM,85.9 ± 9.3%
COc1ccccc1OCCNCC(O)COc1cccc2[nH]c3ccccc3c12 (centres undefined),HMGB1-induced TNF-alpha production,compound concentration: 3 uM,79.2%
O=C(NCC1CCCCN1)c1cc(OCC(F)(F)F)ccc1OCC(F)(F)F (centres undefined) [Flecainide acetate],HMGB1-induced TNF-alpha production,compound concentration: 3 uM,85.4%
O=C(NCC1CCCCN1)c1cc(OCC(F)(F)F)ccc1OCC(F)(F)F (centres undefined) [Flecainide],HMGB1-induced TNF-alpha production,compound concentration: 3 uM,104%
CC1CCc2cc(F)cc3c(=O)c(C(=O)O)cn1c23 (centres undefined),HMGB1-induced TNF-alpha production,compound concentration: 3 uM,105%
CC1CCc2cc(F)cc3c(=O)c(C(=O)O)cn1c23 (centres undefined) [Flumequine],HMGB1-induced TNF-alpha production,compound concentration: 3 uM,69.6%
CC1(C)S[C@@H]2[C@H](/N=C/N3CCCCCC3)C(=O)N2[C@H]1C(=O)O,HMGB1-induced TNF-alpha production,compound concentration: 3 uM,127%
CCCCOc1ccc(OCCCN2CCOCC2)cc1 [Pramoxine hydrochloride],HMGB1-induced TNF-alpha production,compound concentration: 3 uM,101%
CCCCOc1ccc(OCCCN2CCOCC2)cc1,HMGB1-induced TNF-alpha production,compound concentration: 3 uM,81.2%
Cc1nc2c(OCc3ccccc3)cccn2c1CC#N,HMGB1-induced TNF-alpha production,compound concentration: 3 uM,75.5%
CCOC(=O)C1=C(C)NC(C)=C(C(=O)OC)C1c1cccc([N+](=O)[O-])c1 (centres undefined) [Nitrendipine],HMGB1-induced TNF-alpha production,compound concentration: 3 uM,83.7 ± 12%
CCOC(=O)C1=C(C)NC(C)=C(C(=O)OC)C1c1cccc([N+](=O)[O-])c1 (centres undefined),HMGB1-induced TNF-alpha production,compound concentration: 3 uM,89.5 ± 28%
CC1(C)S[C@@H]2[C@H](N3C(=O)[C@@H](c4ccccc4)NC3(C)C)C(=O)N2[C@H]1C(=O)O,HMGB1-induced TNF-alpha production,compound concentration: 3 uM,90.9%
N[C@H](C(=O)O)[C@H](Cc1ccccc1)C(=O)O [L-Beta-threo-benzyl-aspartate],HMGB1-induced TNF-alpha production,compound concentration: 3 uM,110%
CCn1cc(C(=O)O)c(=O)c2cc(F)c(N3CCNCC3)cc21 [Norfloxacin],HMGB1-induced TNF-alpha production,compound concentration: 3 uM,82 ± 3.6%
CCn1cc(C(=O)O)c(=O)c2cc(F)c(N3CCNCC3)cc21,HMGB1-induced TNF-alpha production,compound concentration: 3 uM,95.6%
"CN(C)c1nc(N)c(C(=O)NC(=N)N)nc1Cl [5-(N,N-Dimethyl)amiloride hydrochloride]",HMGB1-induced TNF-alpha production,compound concentration: 3 uM,76.4%
O=C(c1ccc(OCCN2CCCCC2)cc1)c1c(-c2ccc(O)cc2)sc2cc(O)ccc12 [Raloxifene],HMGB1-induced TNF-alpha production,compound concentration: 3 uM,62.3%
O=C(c1ccc(OCCN2CCCCC2)cc1)c1c(-c2ccc(O)cc2)sc2cc(O)ccc12,HMGB1-induced TNF-alpha production,compound concentration: 3 uM,81.9%
O=C(c1ccc(OCCN2CCCCC2)cc1)c1c(-c2ccc(O)cc2)sc2cc(O)ccc12 [Raloxifene hydrochloride],HMGB1-induced TNF-alpha production,compound concentration: 3 uM,101 ± 6%
CC(CN1c2ccccc2Sc2ccccc21)N(C)C (centres undefined) [Promethazine hydrochloride],HMGB1-induced TNF-alpha production,compound concentration: 3 uM,115 ± 0.4%
CC(CN1c2ccccc2Sc2ccccc21)N(C)C (centres undefined) [Promethazine],HMGB1-induced TNF-alpha production,compound concentration: 3 uM,93.8%
CC(CN1c2ccccc2Sc2ccccc21)N(C)C (centres undefined),HMGB1-induced TNF-alpha production,compound concentration: 3 uM,80.9%
O=C(CCCCCCCCCCCCC1CCCC1)Nc1ccc(S(=O)(=O)c2ccc(NC(=O)CCCCCCCCCCCCC3CCCC3)cc2)cc1,HMGB1-induced TNF-alpha production,compound concentration: 3 uM,87.9%
NS(=O)(=O)c1cc2c(cc1C(F)(F)F)NC(Cc1ccccc1)NS2(=O)=O (centres undefined) [Bendroflumethiazide],HMGB1-induced TNF-alpha production,compound concentration: 3 uM,85.1%
NS(=O)(=O)c1cc2c(cc1C(F)(F)F)NC(Cc1ccccc1)NS2(=O)=O (centres undefined),HMGB1-induced TNF-alpha production,compound concentration: 3 uM,104%
COc1ccccc1CNCCCCCCNCCCCCCCCNCCCCCCNCc1ccccc1OC [Methoctramine tetrahydrochloride],HMGB1-induced TNF-alpha production,compound concentration: 3 uM,93.5%
Nn1nnc2ccccc21 [1-Aminobenzotriazole],HMGB1-induced TNF-alpha production,compound concentration: 3 uM,97.1%
CN(C)CCCC1(c2ccc(F)cc2)OCc2cc(C#N)ccc21 (centres undefined) [Citalopram Hydrobromide],HMGB1-induced TNF-alpha production,compound concentration: 3 uM,116%
CN(C)CCCC1(c2ccc(F)cc2)OCc2cc(C#N)ccc21 (centres undefined) [Citalopram],HMGB1-induced TNF-alpha production,compound concentration: 3 uM,97.9%
CN(C)CCCC1(c2ccc(F)cc2)OCc2cc(C#N)ccc21 (centres undefined) [Citalopram hydrobromide],HMGB1-induced TNF-alpha production,compound concentration: 3 uM,89.6 ± 10%
CN(C)CCCC1(c2ccc(F)cc2)OCc2cc(C#N)ccc21 (centres undefined),HMGB1-induced TNF-alpha production,compound concentration: 3 uM,81.8%
CCCC(CCC)C(=O)O [Valproic acid sodium],HMGB1-induced TNF-alpha production,compound concentration: 3 uM,103%
CCCC(CCC)C(=O)O,HMGB1-induced TNF-alpha production,compound concentration: 3 uM,80.6%
CCCC(CCC)C(=O)O [Valproic acid],HMGB1-induced TNF-alpha production,compound concentration: 3 uM,102 ± 13%
Cc1onc(-c2ccccc2)c1C(=O)N[C@@H]1C(=O)N2[C@@H]1SC(C)(C)[C@@H]2C(=O)O,HMGB1-induced TNF-alpha production,compound concentration: 3 uM,87.2%
Cc1onc(-c2ccccc2)c1C(=O)N[C@@H]1C(=O)N2[C@@H]1SC(C)(C)[C@@H]2C(=O)O [Oxacillin],HMGB1-induced TNF-alpha production,compound concentration: 3 uM,85.9%
O=C(O)CNC(=O)C(CS)Cc1ccccc1 (centres undefined) [Thiorphan],HMGB1-induced TNF-alpha production,compound concentration: 3 uM,107%
CN1Cc2sccc2C(c2ccc(O)c(O)c2)C1 (centres undefined),HMGB1-induced TNF-alpha production,compound concentration: 3 uM,88.2%
COc1ccccc1N1CCN(CCN2C(=O)CC3(CCCC3)CC2=O)CC1 [BMY 7378 dihydrochloride],HMGB1-induced TNF-alpha production,compound concentration: 3 uM,84.7%
OCC(O)CN1CCN(c2ccccc2)CC1 (centres undefined),HMGB1-induced TNF-alpha production,compound concentration: 3 uM,78.3%
CN(C)CCC(c1ccc(Cl)cc1)c1ccccn1 (centres undefined) [Chlorpheniramine maleate],HMGB1-induced TNF-alpha production,compound concentration: 3 uM,69.4%
CN(C)CCC(c1ccc(Cl)cc1)c1ccccn1 (centres undefined) [Chlorpheniramine],HMGB1-induced TNF-alpha production,compound concentration: 3 uM,97.2 ± 23%

# Reformatted: results already given.
structure (smiles)	measurement	setting	value
COc1cc(N)c(Cl)cc1C(=O)NC1CCN(Cc2ccccc2)CC1 [Clebopride maleate]	HMGB1-induced TNF-alpha production	compound concentration: 3 uM	62.9%
Nc1nc(N)nc(-c2cc(Cl)ccc2Cl)n1	HMGB1-induced TNF-alpha production	compound concentration: 3 uM	90.6%
Nc1nc(N)nc(-c2cc(Cl)ccc2Cl)n1 [Irsogladine]	HMGB1-induced TNF-alpha production	compound concentration: 3 uM	94.5%
CCN1CCCC1CNC(=O)c1cc(S(=O)(=O)CC)c(N)cc1OC (centres undefined) [Amisulpride]	HMGB1-induced TNF-alpha production	compound concentration: 3 uM	107 ± 8%
CCc1c(C(=O)NCCc2ccc(N3CCCCC3)cc2)[nH]c2ccc(Cl)cc12	HMGB1-induced TNF-alpha production	compound concentration: 3 uM	108%
CC(C)[C@H]1CC[C@H](C(=O)N[C@H](Cc2ccccc2)C(=O)O)CC1	HMGB1-induced TNF-alpha production	compound concentration: 3 uM	91.9 ± 25%
COc1ccc(CCCOC(Cn2ccnc2)c2ccc(OC)cc2)cc1 (centres undefined)	HMGB1-induced TNF-alpha production	compound concentration: 3 uM	90.7%
CCCOC(=O)c1c(-c2ccccc2)nc(CC)c(C(=O)SCC)c1CCC	HMGB1-induced TNF-alpha production	compound concentration: 3 uM	93.5%
CC1CCc2cc(F)cc3c(=O)c(C(=O)O)cn1c23 (centres undefined)	HMGB1-induced TNF-alpha production	compound concentration: 3 uM	105%
CC1(C)S[C@@H]2[C@H](/N=C/N3CCCCCC3)C(=O)N2[C@H]1C(=O)O	HMGB1-induced TNF-alpha production	compound concentration: 3 uM	127%
N[C@H](C(=O)O)[C@H](Cc1ccccc1)C(=O)O [L-Beta-threo-benzyl-aspartate]	HMGB1-induced TNF-alpha production	compound concentration: 3 uM	110%
O=C(c1ccc(OCCN2CCCCC2)cc1)c1c(-c2ccc(O)cc2)sc2cc(O)ccc12	HMGB1-induced TNF-alpha production	compound concentration: 3 uM	81.9%
CC(CN1c2ccccc2Sc2ccccc21)N(C)C (centres undefined) [Promethazine hydrochloride]	HMGB1-induced TNF-alpha production	compound concentration: 3 uM	115 ± 0.4%
CC(CN1c2ccccc2Sc2ccccc21)N(C)C (centres undefined) [Promethazine]	HMGB1-induced TNF-alpha production	compound concentration: 3 uM	93.8%
CN(C)CCCC1(c2ccc(F)cc2)OCc2cc(C#N)ccc21 (centres undefined) [Citalopram hydrobromide]	HMGB1-induced TNF-alpha production	compound concentration: 3 uM	89.6 ± 10%
Cc1onc(-c2ccccc2)c1C(=O)N[C@@H]1C(=O)N2[C@@H]1SC(C)(C)[C@@H]2C(=O)O	HMGB1-induced TNF-alpha production	compound concentration: 3 uM	87.2%
O=C(O)CNC(=O)C(CS)Cc1ccccc1 (centres undefined) [Thiorphan]	HMGB1-induced TNF-alpha production	compound concentration: 3 uM	107%
